Data as given in PubChem BioAssay AID1259425 (University of Nebraska Medical Center, 2018).

- Purpose: 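Find knockdowns that reproduce the gene expression pattern seen when KSR1 is lost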 (primary screen)
- Cells: HCT116 human colon cancer cells
- Reagents: siRNA pool against human genes, 50 nM siRNA
- Measured: 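mRNA of six signature genes measured together by branched-DNA assay after 50 nM siRNA pool, blank removed, divided by geometric mean of two housekeeping genes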
- Reading the numbers: BNIP3L mRNA: higher = more BNIP3L transcript after knockdown
Here is an unselected part of about 14,000 reagents. Reagents against one gene are numbered here. Not all columns of the deposit are shown. Not given: the time to read-out.

target gene | reagent no. | BNIP3L mRNA, set 1
PRRC2A | 1 | 0.318
AKAP5 | 1 | 0.139
MTFR1 | 1 | 0.132
SKIC2 | 1 | 0.15
CHST9 | 1 | 0.174
CACNA1D | 1 | 0.292
NCAM2 | 1 | 0.0716
AHRR | 1 | 0.0215
ATG14 | 1 | 0.112
ERBB4 | 1 | 0.0667
PSMA7 | 1 | 0.31
ADGRF1 | 1 | 0.133
ADGRF1 | 2 | 0.11
ARHGEF16 | 1 | 0.346
TFB2M | 1 | 0.107
B3GNT2 | 1 | 0.0804
CYP2C9 | 1 | 0.0517
CNOT4 | 1 | 0.0671
AP2A2 | 1 | 0.121
ECRG4 | 1 | 0.0813
POLB | 1 | 0.0744
H2BC3 | 1 | 0.107
SMOX | 1 | 0.141
COX4I1 | 1 | 0.0741
IL17RD | 1 | 0.187
GZMA | 1 | 0.0798
TTLL2 | 1 | 0.301
TSNAX | 1 | 0.144
ABL1 | 1 | 0.0883
CYP1A1 | 1 | 0.0663
SMC6 | 1 | 0.194
PRPH | 1 | 0.0576
CTSD | 1 | 0.0961
CFAP46 | 1 | 0.0832
ADAM10 | 1 | 0.105
CYP4F3 | 1 | 0.135
TFAM | 1 | 0.086
MSI1 | 1 | 0.144
IDI2-AS1 | 1 | 0.17
CYP2E1 | 1 | 0.0821
NPRL2 | 1 | 0.0991
NDN | 1 | 0.141
MRPL23 | 1 | 0.152
SYDE1 | 1 | 0.173
RIT2 | 1 | 0.0697
PPP1R14A | 1 | 0.0782
HTR1B | 1 | 0.209
GTF2H2 | 1 | 0.0574
PIK3R5 | 1 | 0.168
FAM50B | 1 | 0.0849

Look-ups from the entries so far:
CYP4F3, BNIP3L mRNA, set 1 → 0.135
Under “BNIP3L mRNA, set 1”, ATG14 shows 0.112
PIK3R5, BNIP3L mRNA, set 1: 0.168
For “BNIP3L mRNA, set 1”, CYP1A1 reads 0.0663
Under “BNIP3L mRNA, set 1”, ADGRF1 #1 reads 0.133
